Measured values taken from PMC4508061, “Selectivity Profiling and Biological Activity of Novel β-Carbolines as Potent and Selective DYRK1 Kinase Inhibitors” (PLoS ONE, 2015).

Tested on: published kinase panels
Assay: Selectivity metrics calculated from published kinome profiling data
Format: biochemical
[1] = 10 μM, 402 kinases, data of ref 31

In the case of `COc1ccc2c(c1)[nH]c1c(C)nccc12` [Harmine, harmine], the Gini score (1 μM, 117 kinases, data of ref 45) is reported as 0.628 and the Gini score [1] is reported as 0.843.

For `CCN1/C(=C/C(C)=O)Sc2ccc(O)cc21` [INDY], the Gini score (10 μM, 66 kinases, data of ref 30) was 0.342.

Work on `O=C1NC(Nc2ccccc2)=N/C1=C\c1ccc2c(c1)OCO2` [L41] yielded a Gini score [1] of 0.673.

`COc1ccc2c3ccnc(C(F)(F)F)c3n(CCCCN)c2c1` [LDN-211898] showed a Gini score (10 μM, 292 kinases, data of ref 38) of 0.652.

Compound `CN1C(=O)/C(=C/c2ccc3c(c2)OCO3)N=C1N` [Leucett-amine B, Leucettamine B] has a Gini score [1] of 0.862.

Compound `c1ccc(-c2cc(-c3cncs3)cs2)cc1` [Thiophene 29] has a Gini score (5 μM, 102 kinases, data of ref 57) of 0.741.
